The test concerns MCF-7. Description: cells. To be noted: Homo sapiens, MCF7, 72 h, read-out: Inhibitory Concentration IC50. How it is done: In Vitro Study—MCF-7 Cell Proliferation
The tumor cells were obtained from American Type Culture Collection (ATCC HTB-22). The culture media used was Minimum Essential medium with 10% fetal bovine serum, and media were supplemented with 1% antibiotic-antimycotic. Aliquots of 100 μl of cell suspension (5×10^3/well) were placed in 96-well microtiter plates in an atmosphere of 5% CO2 at 37° C. After 24 hours, 100 μl of growth medium, 2 μl of test solution, mitomycin or vehicle (DMSO, final concentration 0.4%), was added respectively per well in duplicate for an additional 72-hours incubation. At the end of incubation, 20 μl of alamarBlue 75% reagent was added to each well for another 6-hour incubation before detection of cell viability by fluorescent intensity (excitation at 530 nm and emission at 590 nm).

The structures appear in SMILES notation.

For `CC/C(=C(\c1ccccc1)c1ccc(OCCN(C)C)cc1)c1ccccc1` [tamoxifene], the IC50 worked out at 6 µM.

Source of the values: patent publication US6951883B2, “2H-1-benzopyran derivatives processes for their preparation and pharmaceutical compositions thereof” (Chiesi Farmaceutici S.p.A., priority 2001, dated 2005).
